Measurements reported in US20010046977A1, “Use of alendronate for the prevention of osteoporosis” (MERCK & CO., Inc., priority 1996, published 2001).

Conditions: after four years; women 45-59 years, mostly early postmenopausal; ALN 2.5 or 5 mg per day vs placebo (placebo loses bone mineral density); differences statistically significant

## NCCCC(O)(P(=O)(O)O)P(=O)(O)O [alendronate, 4-amino-1-hydroxybutylidene-1,1-bisphosphonic acid]
  signs of osteoporosis, as measured by decreases in bone mineral density: not developing signs of osteoporosis
